Reference: patent publication US20100150906A1
Results are given in words; binding and its absence hold for the method and conditions named. Some results given as binding are weak or reduced against the parent protein; the word gives no strength. Values belong to the binder of their own block, whether it stands above or below them.

Chains of the proteins cited; added tags and fusions are not shown. Residues count along the entry.
UniProt P05067, residues 672-713: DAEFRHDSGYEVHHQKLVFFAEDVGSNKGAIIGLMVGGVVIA

Experiments:
[1] = molecular target: T1, peptide p13-21 G21 of the third library (A21 to glycine); test: ELISA on third peptide library, hC2 at 200 ng/ml
T1 sequence (peptide, biotinylated (position not stated)): HHQKLVFFG

[2] = molecular target: T2, peptide p14-22 A22 of the third library (E22 to alanine); test: ELISA on third peptide library, hC2 at 200 ng/ml
T2 sequence (peptide, biotinylated (position not stated)): HQKLVFFAA

[3] = molecular target: T3, peptide A15 of the second library (aa 12-20, Q15 to alanine); test: ELISA on alanine-substituted biotinylated peptides, hC2 at 200 ng/ml
T3 sequence (peptide, biotinylated (position not stated)): VHHAKLVFF

[4] = molecular target: T4, peptide A18 of the second library (aa 12-20, V18 to alanine); test: as above
T4 sequence (peptide, biotinylated (position not stated)): VHHQKLAFF

[5] = molecular target: T5, peptide 12 of the first library (aa 12-20 of Aβ); test: ELISA on biotinylated peptides on streptavidin plates, hC2 at 200 ng/ml
T5 sequence (peptide, biotinylated (position not stated)): VHHQKLVFF

[6] = molecular target: T6, peptide 13 of the first library (aa 13-21 of Aβ); test: as above
T6 sequence (peptide, biotinylated (position not stated)): HHQKLVFFA

[7] = molecular target: T7, peptide 14 of the first library (aa 14-22 of Aβ); test: as above
T7 sequence (peptide, biotinylated (position not stated)): HQKLVFFAE

[8] = molecular target: T8, peptide 15 of the first library (aa 15-23 of Aβ); test: as above
T8 sequence (peptide, biotinylated (position not stated)): QKLVFFAED

[9] = molecular target: peptide 16 of the first library (aa 16-24 of Aβ) (UniProt P05067); test: as above
[10] = molecular target: T5, peptide 12 of the first library (aa 12-20 of Aβ); test: ELISA, biotinylated peptide on streptavidin plate, antibody 200 ng/ml, O.D. 405 nm [upper chart, Figure 1]
[11] = molecular target: T6, peptide 13 of the first library (aa 13-21 of Aβ); test: as above
[12] = molecular target: T7, peptide 14 of the first library (aa 14-22 of Aβ); test: as above
[13] = molecular target: T8, peptide 15 of the first library (aa 15-23 of Aβ); test: as above
[14] = molecular target: peptide 16 of the first library (aa 16-24 of Aβ) (UniProt P05067); test: as above
A12 = molecular target: T9, A12; test: ELISA, biotinylated alanine-substituted peptides on streptavidin plate, antibody 200 ng/ml, O.D. 405 nm [middle chart, Figure 2]
T9 sequence (peptide, biotinylated): AHHQKLVFF

A13 = molecular target: T10, A13; test: as above
T10 sequence (peptide, biotinylated): VAHQKLVFF

A14 = molecular target: T11, A14; test: as above
T11 sequence (peptide, biotinylated): VHAQKLVFF

[15] = molecular target: T5, peptide 12 of the first library (aa 12-20 of Aβ); test: as above
[16] = molecular target: T3, peptide A15 of the second library (aa 12-20, Q15 to alanine); test: as above
[17] = molecular target: T4, peptide A18 of the second library (aa 12-20, V18 to alanine); test: as above
[18] = molecular target: T6, peptide 13 of the first library (aa 13-21 of Aβ); test: ELISA, biotinylated peptides of the third library on streptavidin plate, antibody 200 ng/ml, O.D. 405 nm [lower chart, Figure 3]
[19] = molecular target: T7, peptide 14 of the first library (aa 14-22 of Aβ); test: as above
[20] = molecular target: T8, peptide 15 of the first library (aa 15-23 of Aβ); test: as above
[21] = molecular target: T1, peptide p13-21 G21 of the third library (A21 to glycine); test: as above
[22] = molecular target: T2, peptide p14-22 A22 of the third library (E22 to alanine); test: as above
[23] = molecular target: Amyloid Beta (antigen of the Amyloid Beta ELISA) (UniProt P05067); test: Amyloid Beta ELISA, purified antibodies, A405 against antibody in ng/well
[24] = molecular target: Amyloid Beta (antigen of the Amyloid Beta ELISA) (UniProt P05067); test: Amyloid Beta ELISA, conditioned medium from transient transfection
[25] = molecular target: Amyloid Beta (antigen of the Amyloid Beta ELISA) (UniProt P05067); test: Amyloid Beta ELISA, conditioned medium of transient transfection, A405 against antibody in ng/well

binding [1]: binds | binding [2]: binds | binding [3]: binds | binding [4]: binds | binding [5]: binds | binding [6]: binds | binding [7]: binds | binding [8]: binds | binding [9]: binds | binding [10]: binds | binding [11]: binds | binding [12]: binds | binding [13]: binds | binding [14]: binds | binding (A12): binds | binding (A13): binds | binding (A14): binds | binding [15]: binds | binding [16]: binds | binding [17]: binds | binding [18]: binds | binding [19]: binds | binding [20]: binds | binding [21]: binds | binding [22]: binds
B1: humanized anti-human amyloid beta monoclonal antibody hC2 (antibody, human IgG4 S228P, kappa, V domains shown)
VH: EVQLVESGGGLVQPGGSLRLSCAASGFTFSSYGMSWVRQAPGKGLELVASINSNGGSTYYPDSVKGRFTISRDNAKNSLYLQMNSLRAEDTAVYYCASGDYWGQGTTVTVSS
VL: DIVMTQSPLSLPVTPGEPASISCRSSQSLVYSNGDTYLHWYLQKPGQSPQLLIYKVSNRFSGVPDRFSGSGSGTDFTLKISRVEAEDVGVYYCSQSTHVPWTFGQGTKVEIKR

binding [23]: binds
B2: humanized antibody C2 HuVH2/HuVK3 (antibody, human IgG4 S228P, kappa, V domains shown)
VH: EVQLVESGGGLVQPGGSLRLSCAASGFTFSSYGMSWVRQAPGKGLEWVASINSNGGSTYYPDSVKGRFTISRDNAKNSLYLQMNSLRAEDTAVYYCASGDYWGQGTTVTVSS
VL: DIVMTQSPLSLPVTPGEPASISCRSSQSLVYSNGDTYLHWYLQKPGQSPKLLIYKVSNRFSGVPDRFSGSGSGTDFTLKISRVEAEDVGVYYCSQSTHVPWTFGQGTKVEIKR

binding [24]: binds | binding [25]: binds
B3: chimeric C2 VH combined with mC2 VK-R (CDRL2 RVSNRFS) (antibody, V domains shown)
VH: EVQLVESGGGLVQPGGSLKLSCAASGFTFSSYGMSWVRQTPDKRLELVASINSNGGSTYYPDSVKGRFTISRDNAKNTLYLQMSSLKSEDTAMYYCASGDYWGQGSTLTVSS
VL: DVVMTQTPLSLPVSLGDQASISCRSSQSLVYSNGDTYLHWYLQKPGQSPKLLIYRVSNRFSGVPDRFSGSGSGTDFTLKISRVEAEDLGVYFCSQSTHVPWTFGGGTKLEIK

binding [24]: binds | binding [25]: binds
B4: chimeric C2 VH combined with mC2 VK-S (CDRL2 KVSSRFS) (antibody, V domains shown)
VH: EVQLVESGGGLVQPGGSLKLSCAASGFTFSSYGMSWVRQTPDKRLELVASINSNGGSTYYPDSVKGRFTISRDNAKNTLYLQMSSLKSEDTAMYYCASGDYWGQGSTLTVSS
VL: DVVMTQTPLSLPVSLGDQASISCRSSQSLVYSNGDTYLHWYLQKPGQSPKLLIYKVSSRFSGVPDRFSGSGSGTDFTLKISRVEAEDLGVYFCSQSTHVPWTFGGGTKLEIK
